According to article PMC12288870:
No constants are given. Whether binding was seen depends on the method and setting. Binding seen in cells or lysates may run through a third protein. Some entries that bind do so weakly or less than the wild type.

The chains behind the UniProt entries cited, without tags or fusion partners.
UniProt O60573: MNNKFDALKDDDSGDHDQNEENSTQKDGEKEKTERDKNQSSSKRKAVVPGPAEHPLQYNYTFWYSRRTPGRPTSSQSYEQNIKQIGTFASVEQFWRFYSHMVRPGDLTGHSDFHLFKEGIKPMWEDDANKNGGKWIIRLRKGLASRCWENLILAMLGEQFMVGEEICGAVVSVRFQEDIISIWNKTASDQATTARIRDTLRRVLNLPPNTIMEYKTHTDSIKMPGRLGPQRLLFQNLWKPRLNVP

B1: GIGYF2 (protein, UniProt Q6Y7W6 1-1299)
chain: MAAETQTLNFGPEWLRALSSGGSITSPPLSPALPKYKLADYRYGREEMLALFLKDNKIPSDLLDKEFLPILQEEPLPPLALVPFTEEEQRNFSMSVNSAAVLRLTGRGGGGTVVGAPRGRSSSRGRGRGRGECGFYQRSFDEVEGVFGRGGGREMHRSQSWEERGDRRFEKPGRKDVGRPNFEEGGPTSVGRKHEFIRSESENWRIFREEQNGEDEDGGWRLAGSRRDGERWRPHSPDGPRSAGWREHMERRRRFEFDFRDRDDERGYRRVRSGSGSIDDDRDSLPEWCLEDAEEEMGTFDSSGAFLSLKKVQKEPIPEEQEMDFRPVDEGEECSDSEGSHNEEAKEPDKTNKKEGEKTDRVGVEASEETPQTSSSSARPGTPSDHQSQEASQFERKDEPKTEQTEKAEEETRMENSLPAKVPSRGDEMVADVQQPLSQIPSDTASPLLILPPPVPNPSPTLRPVETPVVGAPGMGSVSTEPDDEEGLKHLEQQAEKMVAYLQDSALDDERLASKLQEHRAKGVSIPLMHEAMQKWYYKDPQGEIQGPFNNQEMAEWFQAGYFTMSLLVKRACDESFQPLGDIMKMWGRVPFSPGPAPPPHMGELDQERLTRQQELTALYQMQHLQYQQFLIQQQYAQVLAQQQKAALSSQQQQQLALLLQQFQTLKMRISDQNIIPSVTRSVSVPDTGSIWELQPTASQPTVWEGGSVWDLPLDTTTPGPALEQLQQLEKAKAAKLEQERREAEMRAKREEEERKRQEELRRQQEEILRRQQEEERKRREEEELARRKQEEALRRQREQEIALRRQREEEERQQQEEALRRLEERRREEEERRKQEELLRKQEEEAAKWAREEEEAQRRLEENRLRMEEEAARLRHEEEERKRKELEVQRQKELMRQRQQQQEALRRLQQQQQQQQLAQMKLPSSSTWGQQSNTTACQSQATLSLAEIQKLEEERERQLREEQRRQQRELMKALQQQQQQQQQKLSGWGNVSKPSGTTKSLLEIQQEEARQMQKQQQQQQQHQQPNRARNNTHSNLHTSIGNSVWGSINTGPPNQWASDLVSSIWSNADTKNSNMGFWDDAVKEVGPRNSTNKNKNNASLSKSVGVSNRQNKKVEEEEKLLKLFQGVNKAQDGFTQWCEQMLHALNTANNLDVPTFVSFLKEVESPYEVHDYIRAYLGDTSEAKEFAKQFLERRAKQKANQQRQQQQLPQQQQQQPPQQPPQQPQQQDSVWGMNHSTLHSVFQTNQSNNQQSNFEAVQSGKKKKKQKMVRADPSLLGFSVNASSERLNMGEIETLDDY

Molecular target: FLAG-tagged Nsp2 from SARS-CoV-1 (SARS-CoV-1) (UniProt P0C6X7)
Experiment: co-IP

| Molecule | binding |
| --- | --- |
| eIF4E2 (from UniProt O60573 1-245) | binds |
| B1 | binds |
